The record followed here is PMC11255299.

Sequences of proteins named here, by UniProt entry; tags and fusion partners are left off. A change or cut given only in a name is not applied to a line headed by its entry.
UniProt Q08211: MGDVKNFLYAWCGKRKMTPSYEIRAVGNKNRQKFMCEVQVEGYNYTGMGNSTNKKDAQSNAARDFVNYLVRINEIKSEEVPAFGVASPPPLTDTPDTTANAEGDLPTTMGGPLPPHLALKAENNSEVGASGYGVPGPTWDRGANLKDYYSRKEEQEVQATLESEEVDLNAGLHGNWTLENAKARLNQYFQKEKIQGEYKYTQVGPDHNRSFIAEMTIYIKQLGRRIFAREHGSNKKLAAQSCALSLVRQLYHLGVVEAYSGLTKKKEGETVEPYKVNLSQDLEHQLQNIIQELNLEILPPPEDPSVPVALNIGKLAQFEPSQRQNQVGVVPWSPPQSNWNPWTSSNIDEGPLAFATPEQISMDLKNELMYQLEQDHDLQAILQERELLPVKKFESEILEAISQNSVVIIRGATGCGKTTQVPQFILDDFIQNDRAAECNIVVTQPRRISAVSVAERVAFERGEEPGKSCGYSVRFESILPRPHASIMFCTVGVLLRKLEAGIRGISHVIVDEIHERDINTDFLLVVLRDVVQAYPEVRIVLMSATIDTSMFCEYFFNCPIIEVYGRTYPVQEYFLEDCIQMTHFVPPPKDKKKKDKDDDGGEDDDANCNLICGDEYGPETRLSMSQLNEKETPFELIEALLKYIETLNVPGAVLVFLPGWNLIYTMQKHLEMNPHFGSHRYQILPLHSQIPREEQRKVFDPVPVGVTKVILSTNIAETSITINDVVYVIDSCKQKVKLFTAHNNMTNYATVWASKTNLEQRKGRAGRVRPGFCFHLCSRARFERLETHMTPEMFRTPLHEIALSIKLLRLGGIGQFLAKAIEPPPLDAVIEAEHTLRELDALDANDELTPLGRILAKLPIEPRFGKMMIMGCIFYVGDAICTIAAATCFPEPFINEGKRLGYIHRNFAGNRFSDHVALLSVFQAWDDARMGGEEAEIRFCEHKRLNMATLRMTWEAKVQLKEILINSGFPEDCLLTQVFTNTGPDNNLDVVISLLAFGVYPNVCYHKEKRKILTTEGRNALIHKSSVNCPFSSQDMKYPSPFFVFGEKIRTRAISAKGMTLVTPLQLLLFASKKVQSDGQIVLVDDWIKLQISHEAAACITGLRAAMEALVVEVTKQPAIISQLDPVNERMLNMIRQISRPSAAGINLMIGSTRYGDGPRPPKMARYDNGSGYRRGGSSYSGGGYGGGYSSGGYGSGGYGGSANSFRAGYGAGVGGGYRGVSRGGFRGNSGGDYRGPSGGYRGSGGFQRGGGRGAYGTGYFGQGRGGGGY

The target of experiment [1] is endogenous DHX9 (human (endogenous in HeLa)) (UniProt Q08211). Nature of the experiment: proximity ligation; PLA on PFA-fixed cells treated with RNase A or with RNH (Supplementary Fig. 6l, m).
Experiment [2] deals with SFB-DHX9^WT (human) (UniProt Q08211). Nature of the experiment: pull-down; as a1, lysates (text: nuclear extracts) treated with RNase A (20 μg/mL) before SFB-tag pull-down.
For experiment [3] the target is unchanged. Nature of the experiment: co-IP; FLAG affinity purification (anti-FLAG beads) of SFB-DHX9 from transfected HeLa cells; partners endogenous or HA-tagged, by Western blot; also with co-expressed WT or enzyme-dead RNH-mCherry, and after siControl or siUBC9.
The target of another experiment is SFB-DHX9^K76R (human) (UniProt Q08211). Nature of the experiment: pull-down; SFB-DHX9 variants in lysates of transfected HeLa cells (NETN buffer: 20 mM Tris-HCl pH 8.0, 0.5 mM EDTA, 150 mM NaCl, 0.5% Igepal, 10% glycerol, 15 mM NEM) captured on Dynabeads M-280 streptavidin, 4 °C, 4 h; endogenous partners by Western blot.
Experiment [4] addresses SFB-DHX9^WT (human) (UniProt Q08211). The experiment is described as above.

These are yes or no findings as the source states them, for the method shown. In cells and extracts the contact can be indirect. Some results given as binding are weak or reduced against the parent protein; the word gives no strength. For some assays here: Where a sequence is shown, tags or fusion partners need not be part of it.

B1: DDX21 (protein, UniProt Q9NR30 1-783)
chain: MPGKLRSDAGLESDTAMKKGETLRKQTEEKEKKEKPKSDKTEEIAEEEETVFPKAKQVKKKAEPSEVDMNSPKSKKAKKKEEPSQNDISPKTKSLRKKKEPIEKKVVSSKTKKVTKNEEPSEEEIDAPKPKKMKKEKEMNGETREKSPKLKNGFPHPEPDCNPSEAASEESNSEIEQEIPVEQKEGAFSNFPISEETIKLLKGRGVTFLFPIQAKTFHHVYSGKDLIAQARTGTGKTFSFAIPLIEKLHGELQDRKRGRAPQVLVLAPTRELANQVSKDFSDITKKLSVACFYGGTPYGGQFERMRNGIDILVGTPGRIKDHIQNGKLDLTKLKHVVLDEVDQMLDMGFADQVEEILSVAYKKDSEDNPQTLLFSATCPHWVFNVAKKYMKSTYEQVDLIGKKTQKTAITVEHLAIKCHWTQRAAVIGDVIRVYSGHQGRTIIFCETKKEAQELSQNSAIKQDAQSLHGDIPQKQREITLKGFRNGSFGVLVATNVAARGLDIPEVDLVIQSSPPKDVESYIHRSGRTGRAGRTGVCICFYQHKEEYQLVQVEQKAGIKFKRIGVPSATEIIKASSKDAIRLLDSVPPTAISHFKQSAEKLIEEKGAVEALAAALAHISGATSVDQRSLINSNVGFVTMILQCSIEMPNISYAWKELKEQLGEEIDSKVKGMVFLKGKLGVCFDVPTASVTEIQEKWHDSRRWQLSVATEQPELEGPREGYGGFRGQREGSRGFRGQRDGNRRFRGQREGSRGPRGQRSGGGNKSNRSQNKGQKRSFSKAFGQ
Take B1: the binding entry (in experiment [1]; with SFB-DHX9^WT (human) [2]; with SFB-DHX9^WT (human) [3]; with SFB-DHX9^K76R (human); in the experiment with SFB-DHX9^WT (human) [4]) was “binds” in each case.

B2: HA-DDX21^WT (protein, UniProt Q9NR30 1-783)
chain: MPGKLRSDAGLESDTAMKKGETLRKQTEEKEKKEKPKSDKTEEIAEEEETVFPKAKQVKKKAEPSEVDMNSPKSKKAKKKEEPSQNDISPKTKSLRKKKEPIEKKVVSSKTKKVTKNEEPSEEEIDAPKPKKMKKEKEMNGETREKSPKLKNGFPHPEPDCNPSEAASEESNSEIEQEIPVEQKEGAFSNFPISEETIKLLKGRGVTFLFPIQAKTFHHVYSGKDLIAQARTGTGKTFSFAIPLIEKLHGELQDRKRGRAPQVLVLAPTRELANQVSKDFSDITKKLSVACFYGGTPYGGQFERMRNGIDILVGTPGRIKDHIQNGKLDLTKLKHVVLDEVDQMLDMGFADQVEEILSVAYKKDSEDNPQTLLFSATCPHWVFNVAKKYMKSTYEQVDLIGKKTQKTAITVEHLAIKCHWTQRAAVIGDVIRVYSGHQGRTIIFCETKKEAQELSQNSAIKQDAQSLHGDIPQKQREITLKGFRNGSFGVLVATNVAARGLDIPEVDLVIQSSPPKDVESYIHRSGRTGRAGRTGVCICFYQHKEEYQLVQVEQKAGIKFKRIGVPSATEIIKASSKDAIRLLDSVPPTAISHFKQSAEKLIEEKGAVEALAAALAHISGATSVDQRSLINSNVGFVTMILQCSIEMPNISYAWKELKEQLGEEIDSKVKGMVFLKGKLGVCFDVPTASVTEIQEKWHDSRRWQLSVATEQPELEGPREGYGGFRGQREGSRGFRGQRDGNRRFRGQREGSRGPRGQRSGGGNKSNRSQNKGQKRSFSKAFGQ
For B2, the binding entry with SFB-DHX9^WT (human) [3] was “binds”.

B3: ADAR1 (protein, UniProt P55265 1-1226)
chain: MNPRQGYSLSGYYTHPFQGYEHRQLRYQQPGPGSSPSSFLLKQIEFLKGQLPEAPVIGKQTPSLPPSLPGLRPRFPVLLASSTRGRQVDIRGVPRGVHLRSQGLQRGFQHPSPRGRSLPQRGVDCLSSHFQELSIYQDQEQRILKFLEELGEGKATTAHDLSGKLGTPKKEINRVLYSLAKKGKLQKEAGTPPLWKIAVSTQAWNQHSGVVRPDGHSQGAPNSDPSLEPEDRNSTSVSEDLLEPFIAVSAQAWNQHSGVVRPDSHSQGSPNSDPGLEPEDSNSTSALEDPLEFLDMAEIKEKICDYLFNVSDSSALNLAKNIGLTKARDINAVLIDMERQGDVYRQGTTPPIWHLTDKKRERMQIKRNTNSVPETAPAAIPETKRNAEFLTCNIPTSNASNNMVTTEKVENGQEPVIKLENRQEARPEPARLKPPVHYNGPSKAGYVDFENGQWATDDIPDDLNSIRAAPGEFRAIMEMPSFYSHGLPRCSPYKKLTECQLKNPISGLLEYAQFASQTCEFNMIEQSGPPHEPRFKFQVVINGREFPPAEAGSKKVAKQDAAMKAMTILLEEAKAKDSGKSEESSHYSTEKESEKTAESQTPTPSATSFFSGKSPVTTLLECMHKLGNSCEFRLLSKEGPAHEPKFQYCVAVGAQTFPSVSAPSKKVAKQMAAEEAMKALHGEATNSMASDNQPEGMISESLDNLESMMPNKVRKIGELVRYLNTNPVGGLLEYARSHGFAAEFKLVDQSGPPHEPKFVYQAKVGGRWFPAVCAHSKKQGKQEAADAALRVLIGENEKAERMGFTEVTPVTGASLRRTMLLLSRSPEAQPKTLPLTGSTFHDQIAMLSHRCFNTLTNSFQPSLLGRKILAAIIMKKDSEDMGVVVSLGTGNRCVKGDSLSLKGETVNDCHAEIISRRGFIRFLYSELMKYNSQTAKDSIFEPAKGGEKLQIKKTVSFHLYISTAPCGDGALFDKSCSDRAMESTESRHYPVFENPKQGKLRTKVENGEGTIPVESSDIVPTWDGIRLGERLRTMSCSDKILRWNVLGLQGALLTHFLQPIYLKSVTLGYLFSQGHLTRAICCRVTRDGSAFEDGLRHPFIVNHPKVGRVSIYDSKRQSGKTKETSVNWCLADGYDLEILDGTRGTVDGPRNELSRVSKKNIFLLFKKLCSFRYRRDLLRLSYGEAKKAARDYETAKNYFKKGLKDMGYGNWISKPQEEKNFYLCPV
Consider B3, for which the binding entry in the experiment with SFB-DHX9^WT (human) [2] and with SFB-DHX9^WT (human) [4] was “binds” in each case.

B4: XRN2 (protein, UniProt Q9H0D6 1-950)
chain: MGVPAFFRWLSRKYPSIIVNCVEEKPKECNGVKIPVDASKPNPNDVEFDNLYLDMNGIIHPCTHPEDKPAPKNEDEMMVAIFEYIDRLFSIVRPRRLLYMAIDGVAPRAKMNQQRSRRFRASKEGMEAAVEKQRVREEILAKGGFLPPEEIKERFDSNCITPGTEFMDNLAKCLRYYIADRLNNDPGWKNLTVILSDASAPGEGEHKIMDYIRRQRAQPNHDPNTHHCLCGADADLIMLGLATHEPNFTIIREEFKPNKPKPCGLCNQFGHEVKDCEGLPREKKGKHDELADSLPCAEGEFIFLRLNVLREYLERELTMASLPFTFDVERSIDDWVFMCFFVGNDFLPHLPSLEIRENAIDRLVNIYKNVVHKTGGYLTESGYVNLQRVQMIMLAVGEVEDSIFKKRKDDEDSFRRRQKEKRKRMKRDQPAFTPSGILTPHALGSRNSPGSQVASNPRQAAYEMRMQNNSSPSISPNTSFTSDGSPSPLGGIKRKAEDSDSEPEPEDNVRLWEAGWKQRYYKNKFDVDAADEKFRRKVVQSYVEGLCWVLRYYYQGCASWKWYYPFHYAPFASDFEGIADMPSDFEKGTKPFKPLEQLMGVFPAASGNFLPPSWRKLMSDPDSSIIDFYPEDFAIDLNGKKYAWQGVALLPFVDERRLRAALEEVYPDLTPEETRRNSLGGDVLFVGKHHPLHDFILELYQTGSTEPVEVPPELCHGIQGKFSLDEEAILPDQIVCSPVPMLRDLTQNTVVSINFKDPQFAEDYIFKAVMLPGARKPAAVLKPSDWEKSSNGRQWKPQLGFNRDRRPVHLDQAAFRTLGHVMPRGSGTGIYSNAAPPPVTYQGNLYRPLLRGQAQIPKLMSNMRPQDSWRGPPPLFQQQRFDRGVGAEPLLPWNRMLQTQNAAFQPNQYQMLAGPGGYPPRRDDRGGRQGYPREGRKYPLPPPSGRYNWN
As for B4, the binding result with SFB-DHX9^WT (human) [2], with SFB-DHX9^K76R (human) and in the experiment with SFB-DHX9^WT (human) [4] was “binds” throughout.
